Test results: PMC3656109
Results are given in words; binding and its absence hold for the method and conditions named. In cells and extracts the contact can be indirect. Some entries that bind do so weakly or less than the wild type. Sequences can lack the tags named with a protein.

Amino acid sequences for entries named in this document (tags omitted). Residues count along the entry.
UniProt P29317, residues 24-976: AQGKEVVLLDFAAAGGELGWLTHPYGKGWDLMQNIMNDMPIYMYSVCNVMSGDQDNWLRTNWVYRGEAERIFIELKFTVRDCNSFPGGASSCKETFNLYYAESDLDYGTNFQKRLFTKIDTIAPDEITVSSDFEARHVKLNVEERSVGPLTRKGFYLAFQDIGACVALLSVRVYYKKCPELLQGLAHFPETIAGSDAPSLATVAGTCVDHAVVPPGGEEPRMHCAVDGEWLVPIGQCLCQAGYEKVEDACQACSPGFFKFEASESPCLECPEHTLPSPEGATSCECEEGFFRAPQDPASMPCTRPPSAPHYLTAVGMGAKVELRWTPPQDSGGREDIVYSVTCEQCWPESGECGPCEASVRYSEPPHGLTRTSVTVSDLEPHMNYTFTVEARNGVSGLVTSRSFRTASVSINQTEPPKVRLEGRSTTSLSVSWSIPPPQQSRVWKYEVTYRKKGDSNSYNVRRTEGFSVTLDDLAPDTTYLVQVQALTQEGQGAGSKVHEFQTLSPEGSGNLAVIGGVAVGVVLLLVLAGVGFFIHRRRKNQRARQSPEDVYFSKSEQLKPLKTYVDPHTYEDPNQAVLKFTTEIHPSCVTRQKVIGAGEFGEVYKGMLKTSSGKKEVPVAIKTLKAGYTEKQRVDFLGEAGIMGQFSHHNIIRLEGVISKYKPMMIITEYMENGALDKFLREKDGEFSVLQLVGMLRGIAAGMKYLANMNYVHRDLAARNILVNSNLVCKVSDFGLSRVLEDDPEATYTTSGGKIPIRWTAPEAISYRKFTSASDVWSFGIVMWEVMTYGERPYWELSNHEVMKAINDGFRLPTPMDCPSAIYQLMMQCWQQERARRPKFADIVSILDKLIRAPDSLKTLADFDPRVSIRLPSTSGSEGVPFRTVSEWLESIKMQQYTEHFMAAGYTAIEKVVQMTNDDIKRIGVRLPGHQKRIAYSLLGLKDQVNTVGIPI
UniProt P54764, residues 20-986: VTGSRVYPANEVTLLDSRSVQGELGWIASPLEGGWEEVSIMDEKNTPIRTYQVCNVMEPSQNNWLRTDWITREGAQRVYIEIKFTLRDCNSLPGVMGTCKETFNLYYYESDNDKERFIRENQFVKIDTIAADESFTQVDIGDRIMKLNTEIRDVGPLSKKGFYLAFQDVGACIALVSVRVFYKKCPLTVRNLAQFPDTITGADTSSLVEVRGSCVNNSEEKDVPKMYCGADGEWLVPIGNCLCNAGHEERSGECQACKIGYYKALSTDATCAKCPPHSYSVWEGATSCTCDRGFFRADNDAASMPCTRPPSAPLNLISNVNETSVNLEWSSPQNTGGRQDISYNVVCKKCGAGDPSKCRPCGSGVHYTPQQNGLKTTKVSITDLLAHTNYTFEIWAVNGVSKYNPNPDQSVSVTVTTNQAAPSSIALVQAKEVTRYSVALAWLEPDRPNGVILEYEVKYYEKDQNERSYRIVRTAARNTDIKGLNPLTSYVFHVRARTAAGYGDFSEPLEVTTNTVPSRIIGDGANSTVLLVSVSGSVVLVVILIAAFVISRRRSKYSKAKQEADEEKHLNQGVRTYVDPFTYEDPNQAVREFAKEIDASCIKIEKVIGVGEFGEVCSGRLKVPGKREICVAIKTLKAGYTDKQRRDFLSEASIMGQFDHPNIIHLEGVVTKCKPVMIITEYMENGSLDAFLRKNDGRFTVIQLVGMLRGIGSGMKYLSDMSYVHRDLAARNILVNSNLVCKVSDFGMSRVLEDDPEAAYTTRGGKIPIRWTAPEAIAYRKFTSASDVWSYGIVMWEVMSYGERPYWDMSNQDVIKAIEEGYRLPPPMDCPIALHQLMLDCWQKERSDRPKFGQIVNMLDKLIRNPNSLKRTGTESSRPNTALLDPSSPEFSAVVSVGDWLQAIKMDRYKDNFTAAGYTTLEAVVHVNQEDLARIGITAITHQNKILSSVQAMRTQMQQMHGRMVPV

Tests used:
Test in all cases: pull-down; lysates of 293T cells transfected with myc-tagged Eph constructs immunoprecipitated with 1 µg of recombinant Ephrin-Fc protein; washed three times with lysis buffer; Western blot; only the target purified
[1] = target: T1, EphrinA5-Fc (not stated (human or murine)) (UniProt P52803)
T1 sequence: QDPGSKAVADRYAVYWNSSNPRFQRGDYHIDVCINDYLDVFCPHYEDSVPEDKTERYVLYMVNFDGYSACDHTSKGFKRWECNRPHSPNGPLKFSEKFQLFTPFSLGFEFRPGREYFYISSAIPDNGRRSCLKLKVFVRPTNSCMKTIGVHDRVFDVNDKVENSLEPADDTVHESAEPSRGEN

[2] = target: T2, EphrinA3-Fc (not stated (human or murine)) (UniProt P52797)
T2 sequence: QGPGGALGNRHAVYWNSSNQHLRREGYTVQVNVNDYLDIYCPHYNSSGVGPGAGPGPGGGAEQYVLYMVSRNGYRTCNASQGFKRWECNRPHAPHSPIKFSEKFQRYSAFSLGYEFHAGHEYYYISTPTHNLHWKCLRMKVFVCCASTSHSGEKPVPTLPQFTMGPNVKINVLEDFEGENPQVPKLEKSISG

[3] = target: T3, EphrinA4-Fc (not stated (human or murine)) (UniProt P52798)
T3 sequence: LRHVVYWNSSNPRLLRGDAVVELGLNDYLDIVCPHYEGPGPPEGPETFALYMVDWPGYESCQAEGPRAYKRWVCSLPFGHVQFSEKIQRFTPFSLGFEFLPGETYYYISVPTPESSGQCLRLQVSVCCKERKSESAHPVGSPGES

Substance: EphA2, full length, C-terminal myc epitope tag (from UniProt P29317 24-976) (receptor)
- binding [1]: binds weakly
- binding [2]: binds
- binding [3]: binds

Substance: EphA4, full length, C-terminal myc epitope tag (from UniProt P54764 20-986) (receptor)
- binding [1]: binds
- binding [3]: binds
